Results deposited as PubChem BioAssay AID1053208 (Peter MacCallum Cancer Centre, 2014).

Screen: 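Synthetic lethal interactions between gene loss and doxorubicin in osteosarcoma cells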 (primary screen)
Cell system: mouse osteosarcoma cells, early-passage culture from an engineered mouse model of fibroblastic bone tumour
Reagent: siRNA pool against mouse genes, 40 nM
Duration: about 120 h (48 h before drug, then 72 h with drug)
Conditions: doxorubicin 100 nM for 72 h, roughly 30-40% inhibitory dose
Detection: 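Luminescent ATP signal taken as viability with or without 100 nM doxorubicin for 72 h; mean of two wells set against non-targeting siRNA and turned into robust z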
Direction: viability z-score with doxorubicin and doxorubicin viability vs non-targeting: higher = more viable cells under doxorubicin; viability z-score without drug: higher = more viable cells with knock-down alone; z-score of drug to no-drug ratio: higher = less drug sensitisation by knock-down
Call rule: 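a pool counts as active when its viability z-score with doxorubicin is -2 or below and its z-score without drug lies between -2 and 2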
Here is a random part of about 17,000 reagents tested. 788 of them (4.7%) were called active. 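Calls rest on z-score classes alone; an extra cut-off of viability at most 70% of control was not applied to them.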

gene,combined z-score class,viability z-score with doxorubicin,viability z-score without drug,z-score of drug to no-drug ratio,doxorubicin viability vs non-targeting,Outcome
Atg4b (GeneID 66615),high cell count with doxorubicin only,2.59,0.51,2.36,1.17,inactive
Ncf2 (GeneID 17970),no change with or without drug,1.46,0.17,1.46,1.07,inactive
1700084P21Rik (GeneID 73498),no change with or without drug,1.12,1.85,0,1.04,inactive
Pxt1 (GeneID 69307),no change with or without drug,1.35,1.52,0.45,1.06,inactive
Gabra5 (GeneID 110886),no change with or without drug,0.79,0.84,0.34,1.01,inactive
C230066G23Rik (GeneID 97268),no change with or without drug,0.45,0.51,0.22,0.98,inactive
Tmem11 (GeneID 216821),no change with or without drug,1.24,1.52,0.34,1.05,inactive
Cpeb2 (GeneID 231207),no change with or without drug,0,0.17,0,0.94,inactive
Usp33 (GeneID 170822),no change with or without drug,-0.22,0.34,-0.34,0.92,inactive
Wbp1 (GeneID 22377),high cell count with doxorubicin only,3.93,1.69,2.81,1.29,inactive
Ncbp2 (GeneID 68092),low cell count with and without drug,-4.95,-6.24,-1.35,0.5,inactive
Mtmr7 (GeneID 54384),no change with or without drug,-0.9,-0.84,-0.22,0.86,inactive
Cstb (GeneID 13014),no change with or without drug,1.8,-0.51,2.47,1.1,inactive
Slc22a20 (GeneID 381203),no change with or without drug,1.35,0,1.57,1.06,inactive
Fosl1 (GeneID 14283),no change with or without drug,-0.67,1.18,-1.35,0.88,inactive
Egfl8 (GeneID 81701),no change with or without drug,-0.67,0.17,-0.67,0.88,inactive
Gvin1 (GeneID 74558),no change with or without drug,-0.9,-0.51,-0.56,0.86,inactive
Sowahd (GeneID 245381),low cell count without drug only,-0.34,-6.58,7.19,0.91,inactive
Adam18 (GeneID 13524),no change with or without drug,0.45,0.84,0,0.98,inactive
Tmem59 (GeneID 56374),no change with or without drug,0.9,-0.17,1.24,1.02,inactive
Hsd3b5 (GeneID 15496),no change with or without drug,0.45,0.17,0.45,0.98,inactive
Cirsr (GeneID 66935),no change with or without drug,0.11,0.84,-0.34,0.95,inactive
Prmt5 (GeneID 27374),no change with or without drug,0.22,-0.84,1.01,0.96,inactive
Rpl23 (GeneID 65019),low cell count with and without drug,-6.97,-5.23,-5.4,0.32,inactive
Dbi (GeneID 13167),no change with or without drug,0.79,0.17,0.79,1.01,inactive
Rab35 (GeneID 77407),no change with or without drug,0,-0.17,0.22,0.94,inactive
Dusp14 (GeneID 56405),no change with or without drug,0.79,0.84,0.34,1.01,inactive
Bloc1s6 (GeneID 18457),no change with or without drug,1.35,0.34,1.24,1.06,inactive
Egr2 (GeneID 13654),no change with or without drug,0.67,0.34,0.56,1,inactive
Sh3bp5 (GeneID 24056),no change with or without drug,-1.12,-0.51,-0.79,0.84,inactive
Rgn (GeneID 19733),no change with or without drug,0.56,-0.51,1.12,0.99,inactive
Or4a2 (GeneID 258972),no change with or without drug,-0.45,-1.01,0.34,0.9,inactive
Sf3a3 (GeneID 75062),no change with or without drug,-1.12,-0.51,-0.79,0.84,inactive
A130010J15Rik (GeneID 319266),no change with or without drug,-0.56,1.18,-1.24,0.89,inactive
Slc45a2 (GeneID 22293),no change with or without drug,0.9,0,1.01,1.02,inactive
Smo (GeneID 319757),no change with or without drug,-0.45,-1.52,0.79,0.9,inactive
Klhdc4 (GeneID 234825),low cell count with doxorubicin only,-2.92,0.34,-3.15,0.68,active
Bmp8b (GeneID 12164),no change with or without drug,-0.45,0.84,-0.9,0.9,inactive
AU014748,no change with or without drug,-0.11,0.17,-0.11,0.93,inactive
Gfm2 (GeneID 320806),high cell count without drug only,1.24,2.36,-0.22,1.05,inactive
Rnf208 (GeneID 68846),no change with or without drug,1.35,1.85,0.22,1.06,inactive
Lrwd1 (GeneID 71735),no change with or without drug,1.12,1.85,0,1.04,inactive
Or5d16 (GeneID 258636),low cell count with doxorubicin only,-2.02,-1.35,-1.24,0.76,active
Sel1l (GeneID 20338),no change with or without drug,-0.22,-0.51,0.22,0.92,inactive
Ano7 (GeneID 404545),no change with or without drug,0.67,0.84,0.22,1,inactive
Arhgef39 (GeneID 230098),no change with or without drug,0,0.34,-0.11,0.94,inactive
Med12 (GeneID 59024),no change with or without drug,0.11,0,0.22,0.95,inactive
Mapk8ip3 (GeneID 30957),high cell count without drug only,1.12,3.2,-0.79,1.04,inactive
Mdga1 (GeneID 74762),low cell count without drug only,-0.22,-2.87,2.25,0.92,inactive
Pold4 (GeneID 69745),no change with or without drug,-1.69,-0.84,-1.12,0.79,inactive

Copied from the entries so far for reference:
gene,combined z-score class,viability z-score with doxorubicin,viability z-score without drug,z-score of drug to no-drug ratio,doxorubicin viability vs non-targeting,Outcome
AU014748,no change with or without drug,-0.11,0.17,-0.11,0.93,inactive
Gfm2 (GeneID 320806),high cell count without drug only,1.24,2.36,-0.22,1.05,inactive
Rnf208 (GeneID 68846),no change with or without drug,1.35,1.85,0.22,1.06,inactive
Lrwd1 (GeneID 71735),no change with or without drug,1.12,1.85,0,1.04,inactive
Or5d16 (GeneID 258636),low cell count with doxorubicin only,-2.02,-1.35,-1.24,0.76,active
Sel1l (GeneID 20338),no change with or without drug,-0.22,-0.51,0.22,0.92,inactive
